{"source": "paper PMC3546041", "key": {"[1]": {"molecular_target": "GFP-fused MBD2 COOH-terminus (HEK 293) (mouse)", "test": "condition: only complexes washed with buffer supplemented with 300 mM NaCl; co-IP; HEK293-EBNA cells co-expressing GFP- and RFP-tagged domains; lysis and GBP-bound beads in 200 mM NaCl; complexes washed with buffer containing 300 mM NaCl; Western blot with anti RFP"}, "[2]": {"molecular_target": "GFP-fused MBD2 COOH-terminus (HEK 293) (mouse)", "test": "co-IP; HEK293-EBNA cells co-expressing GFP- and RFP-tagged domains; lysis, GBP-bound beads and washes in buffer with 200 mM NaCl; Western blot with anti RFP"}}, "note": "These are yes or no findings as the source states them, for the method shown. Binding seen in cells or lysates may run through a third protein. For some assays here: A result given as binding can be weak or reduced; the word gives no strength. Where a sequence is shown, tags or fusion partners need not be part of it."}
{"binder": "RFP-fused MBD2 NTD (HEK 293) (domain or fragment, UniProt Q9Z2E1 1-152) MRAHPGGGRCCPEQEEGESAAGGSGAGGDSAIEQGGQGSALAPSPVSGVRREGARGGGRGRGRWKQAARGGGVCGRGRGRGRGRGRGRGRGRGRGRPQSGGSGLGGDGGGGAGGCGGGSGGGVAPRRDPVPFPSGSSGPGPRGPRATESGKR", "values": [{"measurement": "binding", "setting": "[1]", "value": "no binding"}, {"measurement": "binding", "setting": "[2]", "value": "binds"}]}
